Test results from PMC10163288.
Some of the results follow.

B1: il2ra_site1_1z92_sap_23_mot_HHH_b1_08504_af2_000000168_0001_42_54_H_._HHH_b1_06710_0001_0000100005_0000001_0_0001 (protein)
chain: SSSDEEELKRSLRVAVKMAVELLGLDEEERRELEELAEELAERGVDPLEALKILDELARRLSSSS
B2: il2ra_site1_3nfp_normal_mot_HHH_b1_08357_af2_000000270_0001_1_19_H_._HHH_b1_08168_af2_0001_0000800059_0000001_0 (protein)
chain: SSSSDEWEELWRLIRELIELQRQGDEEEFEELFEEVIRLARELNDENAVRAAELVARAHNSSSSS
B3: il2ra_site1_3nfp_normal_mot_HHH_b1_08723_000000044_0001_1_15_H_._HHH_b1_04612_af2_0001_0000600036_0000001_0_af2pred_0001_af2pred (protein)
chain: SSSSSEKEELEELLREAHELYENGNPEEARKVLEEAIELAEELNSENAVKFLRAILRLAKSSSSS
B4: il2ra_site1_1z92_sap_10_mot_HHH_b2_07060_000000038_0001_38_54_H_._HEEHE_2030_0001_0000100002_0000001_0_0001_af2pred_0001_af2pred_1 (protein)
chain: SLEELLQRAVEDIARLAGVPSFEVEVHNGHVEVHLKGDETRARTAAKIIEELAREAGVPVEVEVE
B5: il2ra_site1_3nfp_sap_11_mot_01923d483164837742cf829bee572cc5_0001_af2_000000153_0001_17_30_H_._HHH_b1_07621_0001_0000200007_0000001_0_0001_af2pred_0001_af2pred_ … (protein)
chain: SSSSSDEEEYVEQVLKQAENLERRGNPEAARRYLRSLLRALEALNSPLYEEVERLLEEIEESSSS
B6: il2ra_site2_3nfp_normal_mot_HHH_b1_05536_000000266_0001_21_37_H_._HHH_b2_03404_0001_0001900118_0000001_0_af2pred_0001_1_af2pred_swapped (protein)
chain: SSSSSEEEEFRFAVLVAELLAEELGDPEALERLEELREEYEEEGDPRIFEEISKIAQELLDSSSS
B7: il2ra_site1_3nfp_sap_12_mot_44cd6c0e0f7a4ff4e9b806e9964b2fdf_0001_af2_000000029_0001_35_49_H_._2f079a3b57af2c20eddd8b670d0b743d_0001_1_0001_0000800008_0000001_0 … (protein)
chain: SSSSSESRLREVRELLKRAEEALEEGDPELVRELLEEAQRVAEEGNNPSLRRFVELAIKQVSSSS
B8: il2ra_site1_3nfp_sap_6_mot_HHH_b1_03236_000000173_0001_17_33_H_._HHH_b1_02291_0001_0000100005_0000001_0_0001 (protein)
chain: DDEESIERAIERAAKLAGVPGVEVEVSNNKIHVEFEGNNEQARAASKIVEEMARAINLEIEVRFE
B9: il2ra_site2_3nfp_sap_30_mot_HHH_b1_04805_af2_000000202_0001_1_19_H_._ems_3hC_59_0002_0001_0001100056_0000001_0_0001 (protein)
chain: SSSSSDVAEQSLRLAALRAKREGNEEALEVVEEAIEAYEKGLADDLEIYELLYEAYELLKSSSSS
B10: il2ra_site2_3nfp_normal_mot_HHH_b2_04451_000000238_0001_21_37_H_._HHH_b1_00928_0001_0000200003_0000001_0 (protein)
chain: SSSSDEEEERVREEIERLLKEGDKYEALQLLAELTEEALRNNDEELDRLLLRLFELAQELSSSSS
B11: il2ra_site2_2erj_normal_mot_HHH_b1_00261_000000083_0001_43_58_H_._HHH_b1_03106_0001_0000200009_0000001_0 (protein)
chain: SSSSNERIEKVSELAIELLELFERGDPEEARRLAEEIVEELEELGDPESARYIEYILRIISSSSS
B12: il2ra_site1_2b5i_normal_mot_067def8349c108d94f0197242f5284c2_0001_1_000000273_0001_35_49_H_._4768f0874ff0c59541f1d07f557e6cb6_0001_0001_0000200012_0000001_0_af2 … (protein)
chain: DLAALEALAAAIAETLDNPEAEKAISKLLFRVRAGDEEARRELLELYALAQADPEAALERARKLL
B13: il2ra_site1_2b5i_normal_mot_HHH_b2_04910_000000118_0001_1_19_H_._HHH_b1_00719_af2_0001_0000100004_0000001_0_af2pred_dldesign_0_af2pred (protein)
chain: SSSSSPEVKKAIELFLEANELFQAGKPEEAKKKLEEALKLAKKGKASSLVKMIENALSLISSSSS
B14: il2ra_site2_2erj_sap_18_mot_HHH_b1_00071_af2_000000225_0001_40_56_H_._HHH_b2_01084_0002_0000200007_0000001_0_0001_af2pred_0001_af2pred (protein)
chain: SSSSSDEEETRERVEELLEEAKELPDLREALRLAQEAAELAAKYDDPELLRLVDEVAKKLSSSSS
B15: il2ra_site1_3nfp_normal_mot_HHH_b2_02135_000000263_0001_1_18_H_._HHH_b1_04956_0001_0000100008_0000001_0_af2pred_0001_af2pred_swapped (protein)
chain: SSSSDVSREAQRLAKRISKLIKEGDHEEARELLEELEELARETGSPVAELYVKRLERHIDSSSSS
B16: il2ra_site1_3nfp_normal_mot_HHH_b1_01231_af2_000000170_0001_1_16_H_._HHH_b1_08672_af2_0001_0001700032_0000001_0_af2pred_0001_af2pred_1 (protein)
chain: SSSSDEKKEEALRIAELLLELARRGDREELEELLEKLRELAEELNDPWLERLLRQVERLLSSSSS
B17: il2ra_site1_2b5i_normal_mot_HHH_b1_07881_af2_000000049_0001_1_19_H_._HHH_b1_04949_af2_0001_0000100006_0000001_1 (protein)
chain: SSSSSDEEVEELFHEASELLRRGDPEEAKEVLKEALELAEELGSENEARDIRFFLEQIKLSSSSS
B18: il2ra_site1_2b5i_normal_mot_HHH_b1_01949_af2_000000041_0001_1_19_H_._HHH_b1_05336_af2_0001_0000400018_0000001_0_af2pred_0001_af2pred (protein)
chain: SSSSSEEEQVTELFREASELFRNGNPEEARKVLEEALELARETGDPVAEEDLERLLEMLNSSSSS
B19: il2ra_site1_1z92_sap_22_mot_HHH_b1_07526_000000113_0001_40_57_H_._HHH_b1_06078_af2_0001_0000100008_0000001_0_0001_af2pred_0001_af2pred (protein)
chain: SDIEEILKEAVEKNDEELLERFIKQLLRDTGDPERVEQLLRILVRRLGLPPEVLEELRRLLEELT

Target: il2ra, P01589
Assay: yeast display titration

Binder | apparent Kd
B1 | inactive: no binding seen
B2 | inactive: no binding seen
B3 | inactive: no binding seen
B4 | inactive: no binding seen
B5 | inactive: no binding seen
B6 | inactive: no binding seen
B7 | inactive: no binding seen
B8 | inactive: no binding seen
B9 | inactive: no binding seen
B10 | inactive: no binding seen
B11 | inactive: no binding seen
B12 | inactive: no binding seen
B13 | inactive: no binding seen
B14 | inactive: no binding seen
B15 | inactive: no binding seen
B16 | inactive: no binding seen
B17 | inactive: no binding seen
B18 | inactive: no binding seen
B19 | inactive: no binding seen

Retrieved one by one from the entries so far:
Binder | apparent Kd
B8 | inactive: no binding seen
B14 | inactive: no binding seen
